## Library screening results

From ChEMBL document CHEMBL3988442, “University of Dundee, Small-Polar-MMV Screening Library” (2021).

Mtb growth Cornell: 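Whole-cell assay for inhibitors of Mycobacterium tuberculosis growth, labelled Cornell in the record; the read-out is not stated. The concentration is filed as 10 mM, unlikely as a test dose, so the dose is not known. The record gives no direction; compounds strong in two other growth screens of this library score well above the rest, so higher reads as stronger inhibition. About 53,000 compounds were tested under these conditions; 1.7% (about 900) showed 50% or more at least once.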
Mtb heat-shock: 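Assay on Mycobacterium tuberculosis, filed only as a heat shock assay from Cornell; the read-out is not stated. The concentration is filed as 10 mM, unlikely as a test dose, so the dose is not known. Higher reads as stronger inhibition (inferred: compounds with an IC50 in retests scored well above the rest). Of about 69,000 compounds tested this way, about 930 (1.4%) reached 50% or more in at least one test.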

Results are given as percent effect. The record does not define 0% and 100%; most values in the screen are far below 50% and negative numbers occur (in some assays of this library far below -100). This is an unselected part of the compounds tested. A dash means the value is not listed here; it may have been measured.

OCC(O)CN1CCc2onc(-c3ccc(C(F)(F)F)cc3)c2C1 (stereo not drawn) gave Mtb growth Cornell: 17.65%; Mtb heat-shock: 97.28%.
Cc1cc(C)c2nc(C)c(C(=O)N3CCC(N4CCCC4)CC3)cc2c1 gave Mtb growth Cornell: -8.691%; Mtb heat-shock: 2.282%.
Cc1[nH]c(=O)[nH]c(=O)c1CN1CCCC(CCc2ccccc2F)C1 (stereo not drawn) gave Mtb heat-shock: 14.48%.
[H][C@]12CC[C@]([H])(CN(Cc3cccnc3)C1)N(C(=O)Cc1ccncc1)C2 gave Mtb heat-shock: -16.99%.
O=C(O)C(F)(F)F.O=C(O)C(F)(F)F.O=C1CC2(CCN(CC3CC3)C2)CN1c1cccnc1 (stereo not drawn) gave Mtb growth Cornell: -4.506%; Mtb heat-shock: -0.01991%.
NC(=O)CN1CCC(C(=O)NCC(O)c2cccc(F)c2)CC1 (stereo not drawn) gave Mtb heat-shock: -91.91%.
[H][C@@]12CCCO[C@]1([H])[C@H](Oc1ccccn1)CN2C(=O)CN(C)C gave Mtb growth Cornell: -21.9%; Mtb heat-shock: 20.58%.
Cc1cc(C(C)(O)CNC(=O)CCn2ccnc2C(C)C)c(C)o1 (stereo not drawn) gave Mtb growth Cornell: -0.9099%; Mtb heat-shock: -43.03%.
Cc1ccn(CCC(=O)NC(C)Cc2ccco2)n1 (stereo not drawn) gave Mtb heat-shock: 25.19%.
COc1cc(CN2CC(=O)N(c3ccc(C)cc3)CC2C)cc(OC)c1 (stereo not drawn) gave Mtb growth Cornell: 47.02%; Mtb heat-shock: 23.62%.
Cc1cccc(C2(CNC(=O)CCNS(C)(=O)=O)CCCC2)c1 gave Mtb growth Cornell: 22.17%; Mtb heat-shock: 10.77%.
Cc1nc(CN2CCc3ncnc(-c4ccccc4)c3CC2)cs1.O=C(O)C(F)(F)F gave Mtb growth Cornell: 32.13%; Mtb heat-shock: -2.855%.
Cc1noc(C2CCCCN2C(=O)C2CCN(C(C)C)CC2)n1 (stereo not drawn) gave Mtb heat-shock: -16.64%.
CN1C(=O)c2ccc(C(=O)N(Cc3cnn(C)c3)C3CC3)cc2C1=O gave Mtb growth Cornell: 1.003%; Mtb heat-shock: -0.6748%.
CC(=O)N(Cc1noc(C)n1)C1CCN(CC2(O)CCCCC2)C1 (stereo not drawn) gave Mtb growth Cornell: -0.5706%; Mtb heat-shock: -4.04%.
CN(C)C(=O)N1CC[C@@H](O)[C@@H]1Cc1ccccc1 gave Mtb growth Cornell: 39.19%; Mtb heat-shock: 14.4%.
CN1N=C(C(=O)N2CCCC(CCc3ccccc3)C2)CCC1=O (stereo not drawn) gave Mtb growth Cornell: 21.34%; Mtb heat-shock: -12.17%.
CCCc1noc(C(C)N2CCN(c3ccc(C#N)cn3)CC2)n1 (stereo not drawn) gave Mtb heat-shock: 0.5595%.
Cc1ncsc1C(=O)NC1CCN(Cc2cccc3c2OCCO3)CC1 gave Mtb growth Cornell: 7.737%; Mtb heat-shock: -12.99%.
[H][C@]12CN(C(=O)c3ccc(C)c(Cl)c3)CC[C@@]1(O)CCN(C(=O)N(C)C)C2 gave Mtb growth Cornell: 0.9403%; Mtb heat-shock: 0.75%.
COc1ccc(N2CCN(C(=O)C(C)n3cc(Br)cn3)CC2)cc1 (stereo not drawn) gave Mtb heat-shock: 9.726%.
Cl.N[C@@H](Cc1ccccc1)c1nnc(S(=O)(=O)Cc2cccc(Cl)c2)o1 gave Mtb growth Cornell: -14.13%; Mtb heat-shock: -4.264%.
O=C(NCCNS(=O)(=O)c1ccc(C(F)(F)F)cc1)c1ccoc1 gave Mtb growth Cornell: 10.57%; Mtb heat-shock: 0.7772%.
[H][C@@]12CS(=O)(=O)C[C@]1([H])N(C(=O)c1ccnn1C)CCN2C(=O)C1CCC1 gave Mtb growth Cornell: -4.547%; Mtb heat-shock: -19.04%.
[H][C@@]12CCN(c3nncs3)C[C@@]1([H])O[C@@H](C(=O)NCCc1ccncc1)C2 gave Mtb heat-shock: -25.76%.
Cc1nc(C(=O)NS(=O)(=O)c2cccc(C#N)c2)cs1 gave Mtb heat-shock: -4.989%.
O=C(NCc1ccc(N2CCCC2)nc1)N1CCc2sccc2C1 gave Mtb heat-shock: -23.97%.
Cc1nc(CN2C(=O)CC3(CCN(C(N)=O)CC3)c3ccccc32)cs1.O=C(O)C(F)(F)F gave Mtb growth Cornell: 11.95%; Mtb heat-shock: 4.526%.
CCC(=O)N1CC[C@@H](c2ccc3ccccc3c2)[C@H](O)C1 gave Mtb growth Cornell: 20.18%; Mtb heat-shock: -10.34%.
O=C(O)C(F)(F)F.[H][C@@]12C[C@H](C(=O)NC3CCC3)[C@@]([H])(CN(CC(C)C)C1)O2 gave Mtb growth Cornell: 9.505%; Mtb heat-shock: 35.17%.
NCCc1cccc(CN2CCN(c3ccccc3)C(=O)C2)c1 gave Mtb growth Cornell: -23.11%; Mtb heat-shock: 34.67%.

4 of the entries, repeated:

structure,Mtb growth Cornell,Mtb heat-shock
Cc1nc(C(=O)NS(=O)(=O)c2cccc(C#N)c2)cs1,-,-4.989
CN1N=C(C(=O)N2CCCC(CCc3ccccc3)C2)CCC1=O (stereo not drawn),21.34,-12.17
O=C(O)C(F)(F)F.O=C(O)C(F)(F)F.O=C1CC2(CCN(CC3CC3)C2)CN1c1cccnc1 (stereo not drawn),-4.506,-0.01991
Cc1nc(CN2CCc3ncnc(-c4ccccc4)c3CC2)cs1.O=C(O)C(F)(F)F,32.13,-2.855